Test results as given in PubChem BioAssay AID504467 (National Center for Advancing Translational Sciences (NCATS), 2011).
The whole screen tested about 330,000 compounds, of which about 7,700 (2.3%) were called active. The shares of active, inactive and inconclusive entries below differ from those in the screen. The call rests on the fitted dose curve; in most records, active means well fitted inhibition curve with a large enough effect; inconclusive means small, poorly fitted or top-dose-only effect, or effect the other way; inactive means flat fitted curve, though single readings scatter. Where the call is inconclusive, the potency comes from a doubtful curve fit.

assay: qHTS screen for small molecules that inhibit ELG1-dependent DNA repair in human embryonic kidney (HEK293T) cells expressing luciferase-tagged ELG1; details: HEK293T ELG1-luciferase reporter, luminescence, 16 h, DNA damage induced by 5-fluorouridine; activity change, negative = inhibition: at 46.1 µM (top of the series); further: nearly all actives have a fitted effect of over 55% in size
Procedure, shortened: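 HEK293T cells expressing luciferase-tagged ELG1 (2,000/well) received 5-Fluorouridine plus compound or DMSO for 16 hr at 37 °C. Luciferase was read by ONE-Glo luminescence after 30 min at room temperature.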
On the % scale 0 is the no-effect control and ±100 the full control effect; potency means the concentration at half of the fitted maximal effect.

| SMILES | Potency | activity change, negative = inhibition |
| --- | --- | --- |
| COc1ccc(C(=O)Nc2cccnc2)cc1 | inconclusive: 14.6 µM [activator, partial curve] |  |
| Cc1[nH]nc(-c2ccc(OCc3cnn(-c4ccccc4)c3)cc2O)c1Oc1ccc(Cl)cc1 | inconclusive: 18.4 µM [inhibitor, single point] |  |
| CC(=O)C[C@H](O)CC(=O)[C@H]1OC(=O)CCCCC/C=C/Cc2ccccc21 | inconclusive: 9.2 µM [activator, partial curve, poor fit] |  |
| N/C(=N\OC(=O)COc1ccccc1)c1ccccn1 | inconclusive: 20.6 µM [activator, partial curve] |  |
| COc1ccc(C(=O)COC(=O)c2cccnc2SC)cc1 |  | inactive: 2.92% |
| CC/C(=N\NC(=S)NC(C)C)c1ccc(OC(F)F)cc1 | inconclusive: 23.1 µM [inhibitor, single point] |  |
| CC(=O)c1c(C)[nH]c(C(=O)OCC(=O)NCc2ccc3c(c2)OCO3)c1C | inconclusive: 29.1 µM [inhibitor, single point] |  |
| O=C(Nc1nnc(SCc2ccc(F)cc2)s1)C1CC(=O)N(c2ccc3c(c2)OCCO3)C1 (configuration not stated) | inconclusive: 29.1 µM [activator, partial curve, poor fit] |  |
| CN(C)CCN(C(=O)CCc1ccccc1)c1nc2c(F)cc(F)cc2s1 |  | inactive: -10.4% |
| CCOc1ccc(S(=O)(=O)N2CCCC(C(=O)NCc3cccnc3)C2)cc1 (configuration not stated) |  | inactive: -7.9% |
| Cc1cc(C)c(NS(=O)(=O)c2cccc3cccnc23)c(C)c1 |  | inactive: -20.7% |
| CNS(=O)(=O)c1cccc(C(=O)OCC(=O)Nc2ccc(Cl)cn2)c1 | inconclusive: 1.46 µM [inhibitor, partial curve, poor fit] |  |
| CS(=O)(=O)N(CC(=O)NCCSC1CCCCC1)c1cccc(F)c1 |  | inactive: -11.3% |
| O=C(N/N=C/C=C\c1ccccc1[N+](=O)[O-])c1ccccn1 | inconclusive: 14.6 µM [activator, partial curve] |  |
| O=C(CSc1nnc2scc(-c3ccc(Cl)cc3)n12)NCc1ccc2c(c1)OCO2 | inconclusive: 18.4 µM [inhibitor, single point] |  |
| CCOC(=O)c1cccc(C2=CC(=O)C[C@H](c3ccc(OC)c(OC)c3)C2)c1 | inconclusive: 29.1 µM [inhibitor, single point] |  |
| Cc1cccc(NC(=S)/N=C(\N)Nc2nc(C)c3ccc(C)cc3n2)c1 | inconclusive: 16.4 µM [inhibitor, single point] |  |
| [N-]=[N+]=CC(=O)CC(c1ccccc1)N1C(=O)c2ccccc2C1=O (configuration not stated) | inconclusive: 29.1 µM [activator, single point] |  |
| CCN1C(=NCCc2ccccn2)N[C@@H](c2cccc(F)c2)C(C(=O)OC)=C1C |  | inactive: -15.2% |
| O=C1/C(=C\c2cccc([N+](=O)[O-])c2O)SC(=S)N1Cc1ccccc1 | active: 8.2 µM |  |
| CN(c1ccccc1)S(=O)(=O)c1cccc(NC(=O)Cc2n[nH]c(=O)c3ccccc23)c1 | inconclusive: 32.6 µM [inhibitor, single point] |  |
| O=C(N/N=C\c1ccco1)Nc1cccc(Cl)c1 | inconclusive: 14.6 µM [activator, partial curve] |  |
| Cc1ccc(Cn2ccc(C3CC3)n2)cc1 | inconclusive: 20.6 µM [activator, partial curve] |  |
| c1nnc(-c2ccc3c(c2)OCO3)o1 |  | inactive: 5.32% |

| SMILES | Potency | activity change, negative = inhibition |
| --- | --- | --- |
| CCn1cnc2cc(NCc3ccc(C)cc3)ccc21 | inconclusive: 5.8 µM [activator, partial curve] |  |
| Cn1cnc(S(=O)(=O)N2CCN(C(c3ccc(F)cc3)c3ccc(F)cc3)CC2)c1 | inconclusive: 32.6 µM [activator, partial curve, poor fit] |  |
| Cc1ccnc(SCC(=O)c2cc3ccccc3o2)n1 | inconclusive: 29.1 µM [activator, single point] |  |
| COc1ccc(-c2ccn(-c3cccc(F)n3)n2)cc1 | inconclusive: 4.11 µM [activator, full curve] |  |
| Cc1cc(C(=O)N/N=C/c2ccc(O)c(O)c2O)c(C)n1-c1ccccc1 | inconclusive: 1.83 µM [inhibitor, single point] |  |
| Cc1ccc(-c2csc(NC(=O)CSc3nc4ccccc4[nH]3)n2)cc1 | inconclusive: 23.1 µM [inhibitor, partial curve] |  |
| Nc1nc(/C=C/c2cccnc2)nc(-c2ccccc2O)n1 |  | inactive: 3.29% |
| O=C1NC(=S)S/C1=C\C=C\c1ccc([N+](=O)[O-])o1 | inconclusive: 29.1 µM [inhibitor, single point] |  |
| CC(=O)c1c(C)[nH]c(C2=NNC(=NC(C)(C)C)SC2)c1C | inconclusive: 10.3 µM [activator, partial curve] |  |
| CCOCCCNC(=O)c1cn(CC)c2ccc(S(=O)(=O)N(C)C3CCCCC3)cc2c1=O | inconclusive: 18.3 µM [inhibitor, single point] |  |
| O=C(O)c1ccccn1 |  | inactive: 9.02% |
| CCOC(=O)c1c(NC(=O)C[n+]2ccc(N(C)C)cc2)sc(C)c1C | active: 4.11 µM |  |
| O=C1S/C(=C/c2ccccc2)C(=O)N1CC(O)Cn1c2ccccc2c2ccccc21 (configuration not stated) |  | inactive: -7.7% |
| Cc1ccccc1OCC(=O)Nc1cc(S(=O)(=O)N2CCOCC2)ccc1N1CCCC1 | inconclusive: 35.5 µM [inhibitor, single point] |  |
| COc1ccc(COC(=O)c2ccc(C)c(S(=O)(=O)N3CCOCC3)c2)cc1F | active: 18.3 µM |  |
| Cc1ccc2c(C)ccc(O)c2n1 | inconclusive: 29.1 µM [activator, single point] |  |
| CC(C)(C)S(=O)(=O)c1ccc2nc3c(n2c1)CCCC3 |  | inactive: -10.9% |
| O=C(CN1CCN(c2ccccc2F)CC1)c1c[nH]c2ccc(F)cc12 |  | inactive: 0.0616% |
| CS(=O)(=O)N(CCCC(=O)N1CCCCCC1)c1cccc(Cl)c1 |  | inactive: 9.62% |
| Cc1cccc(C(C)C)c1NC(=O)C1CCN(S(=O)(=O)c2ccccc2)CC1 | inconclusive: 23.1 µM [inhibitor, partial curve, poor fit] |  |
| COc1cc(/C=C2/SC(=O)NC2=O)ccc1OC(=O)c1ccco1 |  | inactive: -1.54% |
| CNC(=S)N/N=C/c1cn(CCOc2ccc(OC)cc2)c2ccccc12 | inconclusive: 20.6 µM [inhibitor, partial curve, poor fit] |  |
| Cc1nn(-c2ccc(N3CCOCC3)nn2)c(C)c1CCC(=O)N1CCN(C)CC1 |  | inactive: 6.39% |
| O=C(COc1ccc(S(=O)(=O)N2CCOCC2)cc1)N1CCc2ccccc2C1 |  | inactive: 1.88% |

Twelve neighbouring compounds from above, quoted:

| SMILES | Potency | activity change, negative = inhibition |
| --- | --- | --- |
| Cc1cc(C(=O)N/N=C/c2ccc(O)c(O)c2O)c(C)n1-c1ccccc1 | inconclusive: 1.83 µM [inhibitor, single point] |  |
| Cc1ccc(-c2csc(NC(=O)CSc3nc4ccccc4[nH]3)n2)cc1 | inconclusive: 23.1 µM [inhibitor, partial curve] |  |
| Nc1nc(/C=C/c2cccnc2)nc(-c2ccccc2O)n1 |  | inactive: 3.29% |
| O=C1NC(=S)S/C1=C\C=C\c1ccc([N+](=O)[O-])o1 | inconclusive: 29.1 µM [inhibitor, single point] |  |
| CC(=O)c1c(C)[nH]c(C2=NNC(=NC(C)(C)C)SC2)c1C | inconclusive: 10.3 µM [activator, partial curve] |  |
| CCOCCCNC(=O)c1cn(CC)c2ccc(S(=O)(=O)N(C)C3CCCCC3)cc2c1=O | inconclusive: 18.3 µM [inhibitor, single point] |  |
| O=C(O)c1ccccn1 |  | inactive: 9.02% |
| CCOC(=O)c1c(NC(=O)C[n+]2ccc(N(C)C)cc2)sc(C)c1C | active: 4.11 µM |  |
| O=C1S/C(=C/c2ccccc2)C(=O)N1CC(O)Cn1c2ccccc2c2ccccc21 (configuration not stated) |  | inactive: -7.7% |
| Cc1ccccc1OCC(=O)Nc1cc(S(=O)(=O)N2CCOCC2)ccc1N1CCCC1 | inconclusive: 35.5 µM [inhibitor, single point] |  |
| COc1ccc(COC(=O)c2ccc(C)c(S(=O)(=O)N3CCOCC3)c2)cc1F | active: 18.3 µM |  |
| Cc1ccc2c(C)ccc(O)c2n1 | inconclusive: 29.1 µM [activator, single point] |  |

Next records:

| SMILES | Potency | activity change, negative = inhibition |
| --- | --- | --- |
| O=C(COc1ccccc1)NC(=S)N1CCc2ccccc21 | inconclusive: 23.1 µM [activator, single point] |  |
| O=C(c1cc(COc2ccc3ncccc3c2)on1)N1CCCC(O)C1 (configuration not stated) | inconclusive: 29.1 µM [inhibitor, single point] |  |
| COc1ccc(-c2ccnc(SCC(=O)c3ccc(Br)cc3)n2)cc1 | inconclusive: 20.6 µM [inhibitor, single point] |  |
| CC(=O)Nc1cccc(NC(=O)CSc2ccc(-c3ccccn3)nn2)c1 |  | inactive: 3.97% |
| COc1ccc(NC(=S)Nc2ccc(S(=O)(=O)N3CCOCC3)cc2)c(OC)c1 | active: 23.1 µM |  |
| Cc1ccc(C2c3c(C)nn(-c4ccc([N+](=O)[O-])cc4)c3N=C3C(=O)Nc4ccccc4N32)cc1 (configuration not stated) | inconclusive: 25.9 µM [inhibitor, single point] |  |
| NC(=O)c1nc(-c2cccs2)nc2c1[nH]c(=O)n2-c1ccc(F)cc1 |  | inactive: 9.52% |
| COc1ccc(C(CNC(=O)c2cc3ccccc3cc2OC)N2CCCC2)cc1 (configuration not stated) |  | inactive: -8.47% |
| C=CCc1ccccc1OCC(O)Cn1ccnc1C (configuration not stated) | inconclusive: 29.1 µM [inhibitor, single point] |  |
| NC(=O)CSc1nnc(NC(=O)C23CC4CC(CC(C4)C2)C3)s1 | inconclusive: 20.6 µM [activator, single point] |  |
| O=C1c2ccccc2C(=O)C1c1ccc(Cl)cc1 | inconclusive: 18.3 µM [activator, single point] |  |
| COc1ccc(S(=O)(=O)Oc2ccccc2C(=S)N2CCOCC2)cc1 |  | inactive: 1.99% |
| CCN(CC)Cc1c(-c2ccccc2)[nH]c2ccc(C)cc2c1=O |  | inactive: 0% |
| CSc1ccc(CN2CCN(Cc3ccc([N+](=O)[O-])cc3)CC2)cc1 | inconclusive: 3.66 µM [inhibitor, partial curve] |  |
| CCCn1c(N)c(C(=O)CSc2nnnn2-c2ccc(O)cc2)c(=O)n(C)c1=O | inconclusive: 11.6 µM [inhibitor, partial curve, poor fit] |  |
| CCCC(=O)Nc1nnc(-c2ccco2)s1 | inconclusive: 18.4 µM [activator, partial curve] |  |
| Nc1ccc(C(=O)c2cccs2)cc1[N+](=O)[O-] | inconclusive: 10.3 µM [activator, partial curve] |  |
| O=C(c1cccs1)N1CCN=C1SCc1cccnc1 | inconclusive: 0.651 µM [inhibitor, partial curve, poor fit] |  |
| Cn1c(CCNC(=O)c2ccco2)nc2cc(NS(=O)(=O)c3ccccc3)ccc21 | inconclusive: 20.6 µM [inhibitor, partial curve] |  |
| CCc1cc(C(=O)NNC(=S)Nc2cc(C)ccc2C)cs1 |  | inactive: 0.827% |
| OCCSc1nnc(Nc2ccccc2)s1 | inconclusive: 18.4 µM [activator, single point] |  |
| CCC(Sc1nc2cc(OC)c(OC)cc2c(=O)n1Cc1ccco1)C(=O)NCCOC (configuration not stated) | inconclusive: 14.6 µM [inhibitor, partial curve, poor fit] |  |
| CCOc1cc(NC(=O)C2CCCCC2)c(OCC)cc1NC(=O)c1ccco1 |  | inactive: -0.0711% |
| CC(C)NC(=O)c1ccc2c3n(nc2c1)-c1ccccc1CO3 | inconclusive: 0.366 µM [activator, full curve] |  |
